# Assay results taken from PubChem BioAssay AID1671190 (National Center for Advancing Translational Sciences (NCATS), 2021).
# The chains behind the UniProt entries cited, without tags or fusion partners. Where a name states a change or a piece, a line headed by the entry shows the natural chain unless it says otherwise.
# UniProt P18054: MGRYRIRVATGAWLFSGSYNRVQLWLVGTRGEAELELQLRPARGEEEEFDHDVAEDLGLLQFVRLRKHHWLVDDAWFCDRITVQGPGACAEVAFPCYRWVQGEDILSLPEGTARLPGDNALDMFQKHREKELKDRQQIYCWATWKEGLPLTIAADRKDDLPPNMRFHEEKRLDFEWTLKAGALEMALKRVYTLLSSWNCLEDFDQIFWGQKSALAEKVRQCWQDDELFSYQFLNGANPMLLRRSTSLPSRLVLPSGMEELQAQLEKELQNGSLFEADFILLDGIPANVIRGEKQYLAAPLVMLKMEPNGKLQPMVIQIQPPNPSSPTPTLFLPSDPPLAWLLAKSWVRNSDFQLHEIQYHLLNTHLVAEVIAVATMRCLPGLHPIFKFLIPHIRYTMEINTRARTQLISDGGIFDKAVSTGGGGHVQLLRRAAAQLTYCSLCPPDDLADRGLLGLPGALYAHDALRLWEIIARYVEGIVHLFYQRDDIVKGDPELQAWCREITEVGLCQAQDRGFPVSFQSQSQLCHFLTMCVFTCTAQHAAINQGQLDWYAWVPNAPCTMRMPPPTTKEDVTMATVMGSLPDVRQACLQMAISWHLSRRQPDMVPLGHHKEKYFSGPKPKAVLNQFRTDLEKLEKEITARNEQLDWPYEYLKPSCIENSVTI
# Out of some 580,000 compounds screened, about 6,100 (1.1%) were called active. This list was built around the results that the source calls inconclusive (neither active nor inactive); the mix of calls is not that of the screen. The call rests on the fitted dose curve; in most records, active means well fitted inhibition curve with a large enough effect; inconclusive means small, poorly fitted or top-dose-only effect, or another doubt; inactive means no such curve, though single readings can be large or run the other way. Potencies of inconclusive entries are doubtful fits and often do not repeat.
# Molecular target: Polyunsaturated fatty acid lipoxygenase ALOX12 (Homo sapiens) (UniProt P18054)
# Assay: Primary qHTS assay for inhibitors of human arachidonate 12S-lipoxygenase (ALOX12): Round 2
# Conditions: purified 12hLO, xylenol orange hydroperoxide absorbance; series mostly up to 108 µM
# Procedure, shortened: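 Purified human 12hLO (150 nM final) in 25 mM Hepes, 0.01% Triton X-100, pH 7.0 was preincubated 15 min at room temperature with compound. Then 40 uM arachidonic acid was added, 30 min. Hydroperoxide was read by Fe-XO absorbance ratio 573/405 nm.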
# Potency means the concentration at half of the fitted maximal effect.
row,Structure (SMILES),Potency
1,CC(C)Sc1nc(N2CCOCC2)c2c(c1C#N)CC(C)(C)N(C)C2,"inconclusive: 31.6 µM [inhibitor, single point]"
2,COC(=S)N/C(=N\S(=O)(=O)c1ccc(Cl)cc1)c1ccccc1,"inconclusive: 79.4 µM [inhibitor, partial curve, poor fit]"
3,CS(=O)(=O)Oc1ccc2c(c1)O/C(=C\c1ccc(Cl)cc1Cl)C2=O,inactive
4,O=C(c1ccco1)N1CCCN(Cc2nc(-c3ccc4c(c3)OCO4)no2)CC1,inactive
5,Fc1cccc(/C=N/Nc2nc3ccccc3[nH]2)c1,inactive
6,Cc1ccc(SCCC(=O)OCC(=O)Nc2ncc(Cl)cc2Cl)cc1,"inconclusive: 44.7 µM [inhibitor, partial curve, poor fit]"
7,COc1cccc(-c2nnn(CCC(=O)O)n2)c1,"inconclusive: 112 µM [inhibitor, partial curve, poor fit]"
8,C(=C\c1ccccc1)/CN1CCN(C(c2ccnc3ccccc23)c2nnnn2-c2ccc3c(c2)OCCO3)CC1 (stereo not given),"inconclusive: 89.1 µM [inhibitor, single point]"
9,COc1cc(OC)cc(C(=O)Nc2ccc3nc4n(c(=O)c3c2)CCCCC4)c1,inactive
10,N#Cc1ccc(OCC(O)Cn2cnc3ccc(Br)cc3c2=O)cc1 (stereo not given),"inconclusive: 17.8 µM [inhibitor, full curve]"
11,CCCn1nc(C(=O)N2CCCC2c2cccs2)c2ccccc2c1=O (stereo not given),"inconclusive: 50.1 µM [inhibitor, partial curve, poor fit]"
12,Cc1cc(N)n(-c2ccc(C(=O)O)cc2)n1,"inconclusive: 2.82 µM [inhibitor, full curve, poor fit]"
13,Cc1ccc(C(=O)N2CCC(n3cc(-c4nc(C(C)C)no4)nn3)C2)cc1C (stereo not given),"inconclusive: 25.1 µM [inhibitor, full curve]"
14,COC(=O)c1ccc(C2C(C(=O)c3ccco3)=C(O)C(=O)N2CC2CCCO2)cc1 (stereo not given),"inconclusive: 50.1 µM [inhibitor, partial curve, poor fit]"
15,Cc1cccc(OCCCC(=O)Nc2ccc(S(N)(=O)=O)cc2)c1,inactive
16,CCOc1ccc(NC(=O)Cn2c(-c3ccc(F)cc3)nc(C)c(CCO)c2=O)cc1,inactive
17,S=c1[nH]ccn1Cc1ccccc1,"inconclusive: 44.7 µM [inhibitor, partial curve, poor fit]"
18,C=CCN1[C@@H](C)[C@H](c2ccccc2)Oc2cccc(N3CCCC3)c2S1(=O)=O,"inconclusive: 126 µM [inhibitor, single point]"
19,Cc1ccccc1CNCCCSc1ncccn1,"inconclusive: 56.2 µM [inhibitor, partial curve, poor fit]"
20,Cc1cc(C)nc(NC(c2ccsc2)c2cc(C)sc2NC(=O)c2ccco2)n1 (stereo not given),"inconclusive: 44.7 µM [inhibitor, partial curve, poor fit]"
21,Cc1ccc(/C=N/n2c(COc3ccccc3)n[nH]c2=S)s1,"inconclusive: 39.8 µM [inhibitor, partial curve]"
22,OC(CNCc1ccccc1)Cn1ccc2ccccc21 (stereo not given),"inconclusive: 39.8 µM [inhibitor, partial curve, poor fit]"

row,Structure (SMILES),Potency
1,Cc1ccc(C)c(-n2c(CNC(=O)c3ccco3)nnc2SCC(=O)N2CCc3ccccc32)c1,inactive
2,COC(=O)c1cccc(N2C(=O)C[C@](Sc3ccc(C)cc3)(C(=O)OC)[C@H]2c2ccccc2)c1,"inconclusive: 50.1 µM [inhibitor, partial curve, poor fit]"
3,CC(C)Oc1ccc(/C(O)=C2\C(=O)C(=O)N(c3nccs3)C2c2cccc(Br)c2)cc1 (stereo not given),"inconclusive: 20 µM [inhibitor, full curve, poor fit]"
4,O=C1N=c2ccccc2=C1c1sc(=S)n(-c2ccc(O)cc2)c1O,inactive
5,O=[N+]([O-])c1ccc(NS(=O)(=O)c2ccc(Cl)c(Cl)c2)cc1,"inconclusive: 44.7 µM [inhibitor, partial curve, poor fit]"
6,CNC1(c2nnnn2-c2ccccc2C)CCOC(C)(C)C1 (stereo not given),inactive
7,COc1ccc(C2C=C(c3ccc(Cl)cc3)Nc3nnnn32)c(OC)c1OC (stereo not given),inactive
8,CN(C)CCN(C(=O)c1ccc(C(=O)c2ccccc2)cc1)c1nc2cc3c(cc2s1)OCCO3,"inconclusive: 39.8 µM [inhibitor, partial curve]"
9,N=c1sccn1CC(=O)Nc1ccc(SC(F)F)cc1,"inconclusive: 70.8 µM [inhibitor, partial curve, poor fit]"
10,COc1ccc([C@@H]2CN(C(=O)CCn3nccc3C)C[C@H]2N(C)C)cc1,"inconclusive: 8.91 µM [inhibitor, partial curve, poor fit]"
11,COc1cccc2cc(C(=O)Oc3ccccc3)c(=O)oc12,inactive
12,CCOc1cccc(NC(=O)c2cccc(C)c2)c1,inactive
13,CCOC(=O)COc1c(Cl)cc(C2NC(=S)NC(c3ccccc3)=C2C(C)=O)cc1OCC (stereo not given),"inconclusive: 50.1 µM [inhibitor, partial curve, poor fit]"
14,N#CC(C(=O)CCC1CCCC1)C(=O)NCc1ccccc1 (stereo not given),"inconclusive: 50.1 µM [inhibitor, single point]"
15,Cc1ccc(NC(=O)CSc2nc3ccccc3c(=O)n2Cc2cccs2)cc1,inactive
16,Cc1cc(NC(=O)c2cc(Cl)ccc2Cl)ccc1-c1cc2ccccc2oc1=O,inactive
17,Cc1ccc2nc(N(CCCN(C)C)C(=O)c3ccc4ncsc4c3)sc2c1,"inconclusive: 31.6 µM [inhibitor, full curve, poor fit]"
18,Cc1ccc(-c2nc3c(Cl)cc(C(F)(F)F)cn3c2Cc2cccc(Cl)c2)cc1,"inconclusive: 112 µM [inhibitor, single point]"
19,O=C(COC(=O)c1cnccn1)c1ccc2c(c1)CCCC2,"inconclusive: 4.47 µM [inhibitor, single point]"
20,Oc1ccccc1C1CCCCC1c1ccccc1 (stereo not given),"inconclusive: 44.7 µM [inhibitor, partial curve, poor fit]"
21,COc1ccc(-n2cc(CN(C)C3CCOCC3)c(-c3cccc(F)c3)n2)cc1,"inconclusive: 70.8 µM [inhibitor, partial curve, poor fit]"
22,O=C(/C=C/c1ccccc1)c1ccccn1,inactive

# Quoted from the listing:
# CCCn1nc(C(=O)N2CCCC2c2cccs2)c2ccccc2c1=O (stereo not given) | Potency: inconclusive: 50.1 µM [inhibitor, partial curve, poor fit]
# CCOC(=O)COc1c(Cl)cc(C2NC(=S)NC(c3ccccc3)=C2C(C)=O)cc1OCC (stereo not given) | Potency: inconclusive: 50.1 µM [inhibitor, partial curve, poor fit]

# (next part)

row,Structure (SMILES),Potency
1,CCNC(=O)C1(C)CCN(C(=O)c2ccc(-c3ccccc3)cc2)C1 (stereo not given),"inconclusive: 3.55 µM [inhibitor, full curve, poor fit]"
2,C=CCN(Cc1cccs1)C(=O)CCl,"inconclusive: 17.8 µM [inhibitor, full curve, poor fit]"
3,CC1(C)CC(=O)C2=C(C1)OC(N)=C(C#N)C2c1ccc(C2C(C#N)=C(N)OC3=C2C(=O)CC(C)(C)C3)cc1 (stereo not given),"inconclusive: 50.1 µM [inhibitor, partial curve, poor fit]"
4,Cc1[nH]nc(-c2ccc(O)cc2O)c1-c1nc2ccccc2s1,"inconclusive: 50.1 µM [inhibitor, partial curve, poor fit]"
5,O=C(CSc1nc(-c2ccco2)cc(C(F)(F)F)n1)Nc1ccccc1C(F)(F)F,"inconclusive: 112 µM [inhibitor, partial curve, poor fit]"
6,COc1ccc(-c2cc(C(=O)OCC(=O)N(C)C)c3ccccc3n2)cc1,"inconclusive: 0.398 µM [inhibitor, full curve, poor fit]"
7,Cc1ccc2nc(-c3ccccc3)c(C)c(C(=O)O)c2c1,inactive
8,O=C1C(=Cc2ccccc2Cl)CCc2ccccc21,"inconclusive: 31.6 µM [inhibitor, partial curve]"
9,Cc1ccc2c(Cl)c(C(=O)NCc3ccco3)sc2c1,"inconclusive: 35.5 µM [inhibitor, partial curve, poor fit]"
10,COc1ccsc1NC(=O)OCc1ccc(Cl)cc1,"inconclusive: 31.6 µM [inhibitor, single point]"
11,COc1ccc(C2Cn3nnc(C(=O)N4CCN(C(=O)c5ccc(F)cc5Cl)CC4)c3CO2)cc1 (stereo not given),inactive
12,Cc1cccc(-c2n[nH]c(=S)n2Cc2ccccc2)c1,"inconclusive: 17.8 µM [inhibitor, partial curve, poor fit]"
13,Cc1ccc(C(=O)NNS(=O)(=O)c2ccccc2[N+](=O)[O-])cc1,"inconclusive: 28.2 µM [inhibitor, partial curve, poor fit]"
14,CC(C)[C@@H](N)C(=O)N1CCC(n2nccc2NC(=O)c2cccc(F)c2)CC1,inactive
15,CN1CCOc2c(C(=O)N3CC[S+](=O)([O-])CC3)cc(N3CCOCC3)cc21,inactive
16,N#C/C(=C\c1ccc[nH]1)C(=O)Nc1ccccc1[N+](=O)[O-],"inconclusive: 11.2 µM [inhibitor, full curve, poor fit]"
17,O=[N+]([O-])c1cc(S(=O)(=O)N2CCOCC2)ccc1N1CCNCC1,"inconclusive: 22.4 µM [inhibitor, partial curve, poor fit]"
18,C=C1C(=O)[C@]23C[C@H]1CCC2[C@@]1(C)C(C[C@@H]3O)[C@](C)(C(=O)OC)CC[C@@H]1OC(C)=O (stereo not given in full),inactive
19,Fc1ccc(CNC[C@H]2Cn3cc(-c4ccccc4)nc3CO2)cc1,"inconclusive: 50.1 µM [inhibitor, partial curve, poor fit]"
20,CCCCCNC(=O)CCN(CCCC)C(=O)c1ccoc1,"inconclusive: 25.1 µM [inhibitor, full curve]"
21,CC(=O)N1CCC(N[C@@H]2C[C@H](Cn3cc(-c4cccnc4)nn3)[C@@H](O)[C@H]2O)CC1,"inconclusive: 12.6 µM [inhibitor, full curve]"

# Entries from the list above containing a COOH group (three):
row,Structure (SMILES),Potency
7,COc1cccc(-c2nnn(CCC(=O)O)n2)c1,"inconclusive: 112 µM [inhibitor, partial curve, poor fit]"
12,Cc1cc(N)n(-c2ccc(C(=O)O)cc2)n1,"inconclusive: 2.82 µM [inhibitor, full curve, poor fit]"
7,Cc1ccc2nc(-c3ccccc3)c(C)c(C(=O)O)c2c1,inactive
